The list shows only some results of the screen, not a fair sample: it gathers tests that were run many times, whatever their T/C, doses with no T/C, and many T/C values between a quarter and a half above the control. Other doses and runs of a compound stand elsewhere. T/C gives the treated animals as a percentage of the vehicle group. Schedule codes are those of the source, taken here to give the interval after Q, in days (D) or hours (H), and the number of doses after X. Some T/C values are followed by the survivors on the day toxicity was checked, most often the fifth; where none is given, no animal had died by that day. Some entries hold several experiments; the results are listed from low to high. Marks such as (2×) say how often a value occurs here. Some doses have a count of surviving animals in place of a T/C: the source files T/C as zero there, which appears to mark a toxic dose or a test without result, not a measured value. Survivors were counted at the toxicity check, usually on the fifth day, unless a day is given; later deaths do not show.
System: BDF1 mice, Adenocarcinoma 755 s.c., tumor weight T/C
Assay: NCI In Vivo Anticancer Drug Screen. Data for tumor model Adenocarcinoma 755 (subcutaneous) in B6D2F1 (BDF1) mice
Conditions: T/C endpoint: mean tumor weight, higher T/C = larger tumour; for T/C: evaluated on day 12
In short: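 Compound activity was tested in mice carrying transplanted tumors. Survival or tumor size was measured, and each value is the treated-group measurement divided by that of the vehicle-treated control group (T/C).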

[1] = dose: 136.0 mg/kg/injection, schedule: Q01DX011 (ip), vehicle: carboxymethylcellulose (CMC)
[2] = dose: 200.0 mg/kg/injection, schedule: Q01DX011 (ip), vehicle: other

In the case of `Nc1nc2c(ccn2Cc2ccccc2)c(=O)[nH]1`, the T/C (dose: 60.0 mg/kg/injection, schedule: Q01DX011 (ip), vehicle: carboxymethylcellulose (CMC)) is reported as 125 % of control and the T/C (dose: 240.0 mg/kg/injection, schedule: Q01DX011 (ip), vehicle: carboxymethylcellulose (CMC)) is reported as 130 % of control.
`O=C(/C=C/C(=O)c1ccccc1)c1ccccc1` was tested, and the survivor count (dose: 180.0 mg/kg/injection, schedule: Q01DX011 (ip), vehicle: other) was 5 of 10.
For `NC(=O)OCCI`, the survivor count (dose: 6.25 mg/kg/injection, schedule: Q01DX011 (ip), vehicle: methylcellulose (MC)) was 6 of 10, the survivor count (dose: 12.5 mg/kg/injection, schedule: Q01DX011 (ip), vehicle: methylcellulose (MC)) was 6 of 10 and the survivor count (dose: 25.0 mg/kg/injection, schedule: Q01DX011 (ip), vehicle: methylcellulose (MC)) was 3 of 10. The survivor count (dose: 50.0 mg/kg/injection, schedule: Q01DX011 (ip), vehicle: methylcellulose (MC)) was 6 of 10 and the survivor count (dose: 100.0 mg/kg/injection, schedule: Q01DX011 (ip), vehicle: methylcellulose (MC)) was 3 of 10.
For `N=[N+]=CC(=O)OCC(N)C(=O)O` (centres undefined), the T/C (dose: 3.6 mg/kg/injection, schedule: Q01DX011 (ip), vehicle: carboxymethylcellulose (CMC)) was 136 % of control [9 of 10 alive] and the survivor count (dose: 18.5 mg/kg/injection, schedule: Q01DX011 (ip), vehicle: carboxymethylcellulose (CMC)) was 5 of 10.
`Nc1ncnc2c1ncn2C1CCCCC1` was tested, and the T/C (dose: 17.0 mg/kg/injection, schedule: Q01DX011 (ip), vehicle: carboxymethylcellulose (CMC)) was 60, 68 [9 of 10 alive], 78, 86 % of control [9 of 10 alive], the T/C (dose: 34.0 mg/kg/injection, schedule: Q01DX011 (ip), vehicle: carboxymethylcellulose (CMC)) was 79, 89, 95, 113 % of control and the T/C (dose: 68.0 mg/kg/injection, schedule: Q01DX011 (ip), vehicle: carboxymethylcellulose (CMC)) was 66 [9 of 10 alive], 68, 69, 104 % of control. For the same compound, the T/C [1] was 63 [7 of 10 alive] and 81 % of control [8 of 10 alive] and the survivor count [1] was 2 of 10 and 5 of 10.
For `Cc1cc2nc3c(=O)[nH]c(=O)nc-3n(CCOC(=O)CCC(=O)O)c2cc1C`, the T/C (dose: 31.5 mg/kg/injection, schedule: Q01DX011 (ip), vehicle: carboxymethylcellulose (CMC)) was 145 % of control [9 of 10 alive], the T/C (dose: 63.0 mg/kg/injection, schedule: Q01DX011 (ip), vehicle: carboxymethylcellulose (CMC)) was 145 % of control and the survivor count (dose: 250.0 mg/kg/injection, schedule: Q01DX011 (ip), vehicle: methylcellulose (MC)) was 4 of 10. For the same compound, the survivor count (dose: 320.0 mg/kg/injection, schedule: Q01DX011 (ip), vehicle: carboxymethylcellulose (CMC)) was 2 of 10 and the survivor count (dose: 500.0 mg/kg/injection, schedule: Q01DX011 (ip), vehicle: methylcellulose (MC)) was 5 of 10.
In the case of `CN(C)c1nc(N(C)C)nc(N(C)C)n1`, the survivor count (dose: 20.0 mg/kg/injection, schedule: Q01DX011 (ip), vehicle: other) is reported as 5 of 10, the T/C (dose: 28.25 mg/kg/injection, schedule: Q01DX011 (ip), vehicle: other) is reported as 126 % of control [9 of 10 alive] and the survivor count (dose: 30.0 mg/kg/injection, schedule: Q01DX011 (ip), vehicle: other) is reported as 5 of 10. For the same compound, the survivor count (dose: 35.0 mg/kg/injection, schedule: Q01DX011 (ip), vehicle: other) was 3 of 10, the survivor count (dose: 38.0 mg/kg/injection, schedule: Q01DX011 (ip), vehicle: other) was 3 of 10 and 5 of 10 and the survivor count (dose: 43.5 mg/kg/injection, schedule: Q01DX011 (ip), vehicle: other) was 5 of 10. The survivor count (dose: 87.0 mg/kg/injection, schedule: Q01DX011 (ip), vehicle: other) was 2 of 10, the T/C (dose: 90.0 mg/kg/injection, schedule: Q01DX011 (iv), vehicle: other) was 132 % of control and the survivor count (dose: 110.8 mg/kg/injection, schedule: Q01DX011 (ip), vehicle: carboxymethylcellulose (CMC)) was 1 of 10. For the same compound, the survivor count (dose: 125.0 mg/kg/injection, schedule: Q01DX011 (iv), vehicle: other) was 5 of 12 and the survivor count (dose: 250.0 mg/kg/injection, schedule: Q01DX011 (oral), vehicle: other) was 4 of 12.
In the case of `COc1ccc(C2=NC(=O)NC2c2ccc(OC)cc2)cc1` (centres undefined), the survivor count (dose: 200.0 mg/kg/injection, schedule: Q01DX011 (ip), vehicle: saline) is reported as 1 of 10.
In the case of `CN(C)C1C(=O)C(C(N)=O)=C(O)C2(O)C(=O)C3=C(O)c4c(O)cccc4C(C)(O)C3C(O)C12` (centres undefined), the T/C (dose: 39.72 mg/kg/injection, schedule: Q01DX011 (ip), vehicle: carboxymethylcellulose (CMC)) is reported as 130 % of control [8 of 10 alive] and the T/C (dose: 63.56 mg/kg/injection, schedule: Q01DX011 (ip), vehicle: carboxymethylcellulose (CMC)) is reported as 126 % of control.
With `S=c1nc[nH]c2c1ncn2C1CCCCC1` the T/C (dose: 47.0 mg/kg/injection, schedule: Q01DX011 (ip), vehicle: carboxymethylcellulose (CMC)) was 53, 82 [9 of 10 alive], 97, 102 % of control, the T/C (dose: 94.0 mg/kg/injection, schedule: Q01DX011 (ip), vehicle: carboxymethylcellulose (CMC)) was 75 [8 of 10 alive], 82, 98, 102 % of control [9 of 10 alive] and the T/C (dose: 94.0 mg/kg/injection, schedule: Q01DX011 (oral), vehicle: carboxymethylcellulose (CMC)) was 142 % of control. The T/C (dose: 188.0 mg/kg/injection, schedule: Q01DX011 (ip), vehicle: carboxymethylcellulose (CMC)) was 81, 82, 86, 117 % of control and the T/C (dose: 376.0 mg/kg/injection, schedule: Q01DX011 (ip), vehicle: carboxymethylcellulose (CMC)) was 71 [9 of 10 alive], 79, 105, 109 % of control [8 of 10 alive].
`CCCCNC(=O)c1n[se]nc1NC(N)=O` was tested, and the survivor count (dose: 75.0 mg/kg/injection, schedule: Q01DX011 (ip), vehicle: carboxymethylcellulose (CMC)) was 0 of 10.
In the case of `Nc1nc2n[nH]nc2c(=O)[nH]1`, the T/C (dose: 25.0 mg/kg/injection, schedule: Q01DX011 (ip), vehicle: other) is reported as 28, 29, 48 [9 of 10 alive], 50, 51, 52, 54, 58, 59 (2×), 61, 63, 68 (2×), 70, 77, 80, 84, 87 [9 of 10 alive], 104 [9 of 10 alive], 105, 109, 111, 121 % of control, the T/C (dose: 50.0 mg/kg/injection, schedule: Q01DX011 (ip), vehicle: other) is reported as 5, 11, 15 (2×), 16, 17 [9 of 10 alive], 20, 21 [9 of 10 alive], 24 [9 of 10 alive], 25, 27, 28 (2×), 29, 35, 37 (2×), 42, 42 [9 of 10 alive], 44 [7 of 10 alive], 52, 59, 61 [8 of 10 alive], 74 % of control and the T/C (dose: 100.0 mg/kg/injection, schedule: Q01DX011 (ip), vehicle: other) is reported as 1 [9 of 10 alive], 2 [9 of 10 alive], 3 [9 of 10 alive], 4 (2×), 4 [7 of 10 alive], 5 (4×), 6 (4×), 8, 8 [9 of 10 alive], 9, 10 [8 of 10 alive], 11 (3×), 13, 16 % of control [7 of 10 alive]. The survivor count (dose: 108.4 mg/kg/injection, schedule: Q01DX011 (ip), vehicle: carboxymethylcellulose (CMC)) was 2 of 10, the T/C [2] was 1 [6 of 9 alive], 1 [7 of 10 alive] (2×), 1 [8 of 10 alive], 1 [9 of 10 alive], 2, 2 [7 of 10 alive], 3, 3 [7 of 10 alive] (2×), 3 [8 of 10 alive], 5 % of control [7 of 10 alive] and the survivor count [2] was 3 of 10, 4 of 10, 5 of 10, 6 of 10. For the same compound, the survivor count (dose: 300.0 mg/kg/injection, schedule: Q01DX011 (ip), vehicle: other) was 1 of 10, 2 of 10, 5 of 10.
With `O=S(=O)(NCc1ccccc1)c1ncnc2nc[nH]c12` the survivor count (dose: 50.0 mg/kg/injection, schedule: Q01DX011 (ip), vehicle: carboxymethylcellulose (CMC)) was 5 of 10.
`C[C@]12C=CC(=O)C=C1CC[C@H]1[C@@H]3C[C@@H](O)[C@](O)(C(=O)CO)[C@@]3(C)C[C@H](O)[C@@]12F` was tested, and the survivor count (dose: 50.0 mg/kg/injection, schedule: Q01DX011 (sc), vehicle: steroid suspending solution) was 6 of 10 and the survivor count (dose: 100.0 mg/kg/injection, schedule: Q01DX011 (sc), vehicle: steroid suspending solution) was 2 of 10.
In the case of `CCCOP(=S)(N1CC1)N1CC1`, the survivor count (dose: 27.0 mg/kg/injection, schedule: Q01DX011 (ip), vehicle: methylcellulose (MC)) is reported as 3 of 10.
`CNC=O` was tested, and the T/C (dose: 35.3 mg/kg/injection, schedule: Q01DX011 (ip), vehicle: carboxymethylcellulose (CMC)) was 131 % of control, the T/C (dose: 180.0 mg/kg/injection, schedule: Q01DX011 (ip), vehicle: carboxymethylcellulose (CMC)) was 130 % of control and the survivor count (dose: 374.7 mg/kg/injection, schedule: Q01DX011 (ip), vehicle: carboxymethylcellulose (CMC)) was 1 of 10.
